US10973820B2, “Compounds for treatment of diseases related to DUX4 expression” (Facio Intellectual Property B.V., priority 2017, dated 2021)

Tested on: primary FSHD cells
Experiment: myotube fusion / differentiation readout (fusion index) in primary FSHD myotubes
Format: cell-based, human
From the text: A quantitative assay readout was developed based on script-based image analysis. […] To analyse the images, an automated script was developed, enabling the detection of nuclei, myotube borders and DUX4 signals, with the script also detecting artefacts to reduce false positive signals. The script enabled multiple validated readouts including the number of DUX4 positive nuclei and nuclei clusters, the fusion index, myotube area, myotube width and myotube skeleton length (see FIG. 2). Additionally, the total nuclei count was included as a measure of cell loss or compound toxicity.
A compound library containing approximately 5000 annotated compounds was screened in the high-content assay. For this purpose, primary myoblasts were seeded in 384 well plates after which the growth medium was replaced with differentiation medium. After 3 days of differentiation, cells were treated with library compounds (in duplicate on different screening plates) for 15 h, after which they were fixed and stained with antibodies against DUX4, antibodies against myosin heavy chain (MHC), and with DAPI (4′,6-diamidino-2-phenylindole). Script-based analysis provided readouts for DUX4 expression (count of DUX4-positive nuclei or DUX4 intensity) and for potential toxicity (fusion index and nuclei count). […]

COc1ccc(CC(C)NCC(O)c2ccc(O)c(NC=O)c2)cc1 (stereo not shown) [formoterol]
fusion process and differentiation of myoblasts into myotubes: no myotube formation can be observed
